The test system of the data set is proteins in oral lavage. Description: Abundance of proteins in human oral lavage (SomaLogic), TABLE 1. It is filed as in vivo. The settings on record: for Means (Original Scale) High bleeder BL / Means (Original Scale) High bleeder W4 / Means (Original Scale) Low bleeder BL: abundance in oral lavage; for Means (Original Scale) High bleeder BL: high bleeders (gingivitis); for Means (Original Scale) High bleeder BL / Means (Original Scale) Low bleeder BL: baseline; for Means (Original Scale) High bleeder W4 / Fold Change High bleeder W4 vs High bleeder BL: high bleeders; for Means (Original Scale) High bleeder W4: week 4 of investigative products; for Means (Original Scale) Low bleeder BL: low bleeders (healthy); for Fold Change High bleeder BL vs Low bleeder BL / Fold Change High bleeder W4 vs High bleeder BL: oral lavage; for Fold Change High bleeder BL vs Low bleeder BL: high bleeders vs low bleeders at baseline; for Fold Change High bleeder W4 vs High bleeder BL: week 4 of investigative products vs baseline.

B1: EGF-containing fibulin-like extracellular matrix protein 1 (protein, UniProt Q12805 18-493, looked up)
EGF-containing fibulin-like …: QDTEETITYTQCTDGYEWDPVRQQCKDIDECDIVPDACKGGMKCVNHYGGYLCLPKTAQIIVNNEQPQQETQPAEGTSGATTGVVAASSMATSGVLPGGGFVASAAAVAGPEMQTGRNNFVIRRNPADPQRIPSNPSHRIQCAAGYEQSEHNVCQDIDECTAGTHNCRADQVCINLRGSFACQCPPGYQKRGEQCVDIDECTIPPYCHQRCVNTPGSFYCQCSPGFQLAANNYTCVDINECDASNQCAQQCYNILGSFICQCNQGYELSSDRLNCEDIDECRTSSYLCQYQCVNEPGKFSCMCPQGYQVVRSRTCQDINECETTNECREDEMCWNYHGGFRCYPRNPCQDPYILTPENRCVCPVSNAMCRELPQSIVYKYMSIRSDRSVPSDIFQIQATTIYANTINTFRIKSGNENGEFYLRQTSPVSAMLVLVKSLSGPREHIVDLEMLTVSSIGTFRTSSVLRLTIIVGPFSF
Consider B1, for which the “Means (Original Scale) High bleeder BL” value amounted to 29110, the “Means (Original Scale) High bleeder W4” value is reported as 11693, the “Means (Original Scale) Low bleeder BL” value is 3473 and the “Fold Change High bleeder BL vs Low bleeder BL” value (shortened to “Fold Change High bleeder BL”) amounted to 6.80. For the same molecule, the “Fold Change High bleeder W4 vs High bleeder BL” value (“Fold Change High bleeder W4” for short) came to 0.50.

B2: Dual specificity mitogen-activated protein kinase kinase 4 (protein, UniProt P45985 2-399, looked up)
Dual specificity …: AAPSPSGGGGSGGGSGSGTPGPVGSPAPGHPAVSSMQGKRKALKLNFANPPFKSTARFTLNPNPTGVQNPHIERLRTHSIESSGKLKISPEQHWDFTAEDLKDLGEIGRGAYGSVNKMVHKPSGQIMAVKRIRSTVDEKEQKQLLMDLDVVMRSSDCPYIVQFYGALFREGDCWICMELMSTSFDKFYKYVYSVLDDVIPEEILGKITLATVKALNHLKENLKIIHRDIKPSNILLDRSGNIKLCDFGISGQLVDSIAKTRDAGCRPYMAPERIDPSASRQGYDVRSDVWSLGITLYELATGRFPYPKWNSVFDQLTQVVKGDPPQLSNSEEREFSPSFINFVNLCLTKDESKRPKYKELLKHPFILMYEERAVEVACYVCKILDQMPATPSSPMYVD
In the case of B2, the “Means (Original Scale) High bleeder BL” value turned out to be 244, the “Means (Original Scale) High bleeder W4” value is 158, the “Means (Original Scale) Low bleeder BL” value came out at 100 and the “Fold Change High bleeder BL” value was 2.18. For the same molecule, the “Fold Change High bleeder W4” value is 0.70.

B3: Endothelial monocyte-activating polypeptide 2 (protein, UniProt Q12904 147-312, looked up)
Endothelial …: SKPIDVSRLDLRIGCIITARKHPDADSLYVEEVDVGEIAPRTVVSGLVNHVPLEQMQNRMVILLCNLKPAKMRGVLSQAMVMCASSPEKIEILAPPNGSVPGDRITFDAFPGEPDKELNPKKKIWEQIQPDLHTNDECVATYKGVPFEVKGKGVCRAQTMSNSGIK
modifications: Endothelial monocyte-activating polypeptide 2
Turning to B3, the “Means (Original Scale) High bleeder BL” value is 2955, the “Means (Original Scale) High bleeder W4” value is reported as 1541, the “Means (Original Scale) Low bleeder BL” value is recorded as 468 and the “Fold Change High bleeder BL” value is given as 4.67. Further, the “Fold Change High bleeder W4” value was found to be 0.60.

B4: Ephrin type-A receptor 1 (protein, UniProt P21709 26-976, looked up)
Ephrin type-A receptor 1: KEVTLMDTSKAQGELGWLLDPPKDGWSEQQQILNGTPLYMYQDCPMQGRRDTDHWLRSNWIYRGEEASRVHVELQFTVRDCKSFPGGAGPLGCKETFNLLYMESDQDVGIQLRRPLFQKVTTVAADQSFTIRDLVSGSVKLNVERCSLGRLTRRGLYLAFHNPGACVALVSVRVFYQRCPETLNGLAQFPDTLPGPAGLVEVAGTCLPHARASPRPSGAPRMHCSPDGEWLVPVGRCHCEPGYEEGGSGEACVACPSGSYRMDMDTPHCLTCPQQSTAESEGATICTCESGHYRAPGEGPQVACTGPPSAPRNLSFSASGTQLSLRWEPPADTGGRQDVRYSVRCSQCQGTAQDGGPCQPCGVGVHFSPGARGLTTPAVHVNGLEPYANYTFNVEAQNGVSGLGSSGHASTSVSISMGHAESLSGLSLRLVKKEPRQLELTWAGSRPRSPGANLTYELHVLNQDEERYQMVLEPRVLLTELQPDTTYIVRVRMLTPLGPGPFSPDHEFRTSPPVSRGLTGGEIVAVIFGLLLGAALLLGILVFRSRRAQRQRQQRQRDRATDVDREDKLWLKPYVDLQAYEDPAQGALDFTRELDPAWLMVDTVIGEGEFGEVYRGTLRLPSQDCKTVAIKTLKDTSPGGQWWNFLREATIMGQFSHPHILHLEGVVTKRKPIMIITEFMENGALDAFLREREDQLVPGQLVAMLQGIASGMNYLSNHNYVHRDLAARNILVNQNLCCKVSDFGLTRLLDDFDGTYETQGGKIPIRWTAPEAIAHRIFTTASDVWSFGIVMWEVLSFGDKPYGEMSNQEVMKSIEDGYRLPPPVDCPAPLYELMKNCWAYDRARRPHFQKLQAHLEQLLANPHSLRTIANFDPRMTLRLPSLSGSDGIPYRTVSEWLESIRMKRYILHFHSAGLDTMECVLELTAEDLTQMGITLPGHQKRILCSIQGFKD
In the case of B4, the “Means (Original Scale) High bleeder BL” value worked out at 605, the “Means (Original Scale) High bleeder W4” value came to 371, the “Means (Original Scale) Low bleeder BL” value was determined as 375 and the “Fold Change High bleeder BL” value is on record as 2.13. For the same molecule, the “Fold Change High bleeder W4” value is reported as 0.59.

B5: Ephrin type-B receptor 2 (protein, UniProt P29323 19-1055, looked up)
Ephrin type-B receptor 2: VEETLMDSTTATAELGWMVHPPSGWEEVSGYDENMNTIRTYQVCNVFESSQNNWLRTKFIRRRGAHRIHVEMKFSVRDCSSIPSVPGSCKETFNLYYYEADFDSATKTFPNWMENPWVKVDTIAADESFSQVDLGGRVMKINTEVRSFGPVSRSGFYLAFQDYGGCMSLIAVRVFYRKCPRIIQNGAIFQETLSGAESTSLVAARGSCIANAEEVDVPIKLYCNGDGEWLVPIGRCMCKAGFEAVENGTVCRGCPSGTFKANQGDEACTHCPINSRTTSEGATNCVCRNGYYRADLDPLDMPCTTIPSAPQAVISSVNETSLMLEWTPPRDSGGREDLVYNIICKSCGSGRGACTRCGDNVQYAPRQLGLTEPRIYISDLLAHTQYTFEIQAVNGVTDQSPFSPQFASVNITTNQAAPSAVSIMHQVSRTVDSITLSWSQPDQPNGVILDYELQYYEKELSEYNATAIKSPTNTVTVQGLKAGAIYVFQVRARTVAGYGRYSGKMYFQTMTEAEYQTSIQEKLPLIIGSSAAGLVFLIAVVVIAIVCNRRGFERADSEYTDKLQHYTSGHMTPGMKIYIDPFTYEDPNEAVREFAKEIDISCVKIEQVIGAGEFGEVCSGHLKLPGKREIFVAIKTLKSGYTEKQRRDFLSEASIMGQFDHPNVIHLEGVVTKSTPVMIITEFMENGSLDSFLRQNDGQFTVIQLVGMLRGIAAGMKYLADMNYVHRDLAARNILVNSNLVCKVSDFGLSRFLEDDTSDPTYTSALGGKIPIRWTAPEAIQYRKFTSASDVWSYGIVMWEVMSYGERPYWDMTNQDVINAIEQDYRLPPPMDCPSALHQLMLDCWQKDRNHRPKFGQIVNTLDKMIRNPNSLKAMAPLSSGINLPLLDRTIPDYTSFNTVDEWLEAIKMGQYKESFANAGFTSFDVVSQMMMEDILRVGVTLAGHQKKILNSIQVMRAQMNQIQSVEGQPLARRPRATGRTKRCQPRDVTKKTCNSNDGKKKGMGKKKTDPGRGREIQGIFFKEDSHKESNDCSCGG
As for B5, the “Means (Original Scale) High bleeder BL” value is recorded as 3011, the “Means (Original Scale) High bleeder W4” value is 1883, the “Means (Original Scale) Low bleeder BL” value is on record as 986 and the “Fold Change High bleeder BL” value was 2.36. The “Fold Change High bleeder W4” value is 0.52.

B6: Ephrin type-B receptor 6 (protein, UniProt O15197 32-1021, looked up)
Ephrin type-B receptor 6: LEEVLLDTTGETSEIGWLTYPPGGWDEVSVLDDQRRLTRTFEACHVAGAPPGTGQDNWLQTHFVERRGAQRAHIRLHFSVRACSSLGVSGGTCRETFTLYYRQAEEPDSPDSVSSWHLKRWTKVDTIAADESFPSSSSSSSSSSSAAWAVGPHGAGQRAGLQLNVKERSFGPLTQRGFYVAFQDTGACLALVAVRLFSYTCPAVLRSFASFPETQASGAGGASLVAAVGTCVAHAEPEEDGVGGQAGGSPPRLHCNGEGKWMVAVGGCRCQPGYQPARGDKACQACPRGLYKSSAGNAPCSPCPARSHAPNPAAPVCPCLEGFYRASSDPPEAPCTGPPSAPQELWFEVQGSALMLHWRLPRELGGRGDLLFNVVCKECEGRQEPASGGGGTCHRCRDEVHFDPRQRGLTESRVLVGGLRAHVPYILEVQAVNGVSELSPDPPQAAAINVSTSHEVPSAVPVVHQVSRASNSITVSWPQPDQTNGNILDYQLRYYDQAEDESHSFTLTSETNTATVTQLSPGHIYGFQVRARTAAGHGPYGGKVYFQTLPQGELSSQLPERLSLVIGSILGALAFLLLAAITVLAVVFQRKRRGTGYTEQLQQYSSPGLGVKYYIDPSTYEDPCQAIRELAREVDPAYIKIEEVIGTGSFGEVRQGRLQPRGRREQTVAIQALWAGGAESLQMTFLGRAAVLGQFQHPNILRLEGVVTKSRPLMVLTEFMELGPLDSFLRQREGQFSSLQLVAMQRGVAAAMQYLSSFAFVHRSLSAHSVLVNSHLVCKVARLGHSPQGPSCLLRWAAPEVIAHGKHTTSSDVWSFGILMWEVMSYGERPYWDMSEQEVLNAIEQEFRLPPPPGCPPGLHLLMLDTWQKDRARRPHFDQLVAAFDKMIRKPDTLQAGGDPGERPSQALLTPVALDFPCLDSPQAWLSAIGLECYQDNFSKFGLCTFSDVAQLSLEDLPALGITLAGHQKKLLHHIQLLQQHLRQQGSVEV
As for B6, the “Means (Original Scale) High bleeder BL” value was found to be 1464, the “Means (Original Scale) High bleeder W4” value is 755, the “Means (Original Scale) Low bleeder BL” value was found to be 392 and the “Fold Change High bleeder BL” value came to 3.50. Further, the “Fold Change High bleeder W4” value was found to be 0.54.

B7: Endoglin (protein, UniProt P17813 26-658, looked up)
Endoglin: ETVHCDLQPVGPERGEVTYTTSQVSKGCVAQAPNAILEVHVLFLEFPTGPSQLELTLQASKQNGTWPREVLLVLSVNSSVFLHLQALGIPLHLAYNSSLVTFQEPPGVNTTELPSFPKTQILEWAAERGPITSAAELNDPQSILLRLGQAQGSLSFCMLEASQDMGRTLEWRPRTPALVRGCHLEGVAGHKEAHILRVLPGHSAGPRTVTVKVELSCAPGDLDAVLILQGPPYVSWLIDANHNMQIWTTGEYSFKIFPEKNIRGFKLPDTPQGLLGEARMLNASIVASFVELPLASIVSLHASSCGGRLQTSPAPIQTTPPKDTCSPELLMSLIQTKCADDAMTLVLKKELVAHLKCTITGLTFWDPSCEAEDRGDKFVLRSAYSSCGMQVSASMISNEAVVNILSSSSPQRKKVHCLNMDSLSFQLGLYLSPHFLQASNTIEPGQQSFVQVRVSPSVSEFLLQLDSCHLDLGPEGGTVELIQGRAAKGNCVSLLSPSPEGDPRFSFLLHFYTVPIPKTGTLSCTVALRPKTGSQDQEVHRTVFMRLNIISPDLSGCTSKGLVLPAVLGITFGAFLIGALLTAALWYIYSHTRSPSKREPVVAVAAPASSESSSTNHSIGSTQSTPCSTSSMA
In the case of B7, the “Means (Original Scale) High bleeder BL” value worked out at 55, the “Means (Original Scale) High bleeder W4” value came out at 38, the “Means (Original Scale) Low bleeder BL” value worked out at 31 and the “Fold Change High bleeder BL” value is recorded as 1.65. Further, the “Fold Change High bleeder W4” value is recorded as 0.72.

Source of the values: patent publication US20180320217A1, “METHODS FOR SAMPLING AND MEASURING ORAL LAVAGE PROTEINS” (The Procter & Gamble Company, priority 2017, published 2018).
